In US20110250130A1 (AbbVie / Abbott, published 2011) one finds binding data, which are given here for three molecules.

This experiment concerns the target Recombinant Human TNF-α/TNFSF1A (human). As to the kind of experiment: SPR (Biacore). (SPR reads the build-up and loss of mass on a sensor chip optically.)

Where a chain is given by its changes, count along the chain named. No constants are given. Whether binding was seen depends on the method and setting. A result given as binding can be weak or reduced; the word gives no strength.

B1: murine anti-human TNF-α monoclonal antibody MAK195 (antibody, V domains shown)
VH: QVQLKESGPGLVAPSQSLSITCTVSGFSLTDYGVNWVRQPPGKGLEWLGMIWGDGSTDYDSTLKSRLSISKDNSKSQIFLKMNSLQTDDTARYYCAREWHHGPVAYWGQGTLVTVSA
VL: DIVMTQSHKFMSTTVGDRVSITCKASQAVSSAVAWYQQKPGQSPKLLIYWASTRHTGVPDRFTGSGSVTDFTLTIHNLQAEDLALYYCQQHYSTPFTFGSGTKLEIKR
On to B1, for which the binding result was “binds”.

B2: AB259 (antibody, V domains shown)
VH: EVQLVESGGGLVQPGGSLRLSCAVSGFTLSDYGVNWVRQAPGKGLEWLGMIWGDGSTDYDSTLKSRLTISKDNSKSTIYLQMNSLRAEDTAVYYCAREWHHGPVAYWGQGTLVTVSS
VL: EIVMTQSPATLSLSPGERATLSCKASQAVSSAVAWYQQKPGQSPRLLIYWASTRHTGVPARFSGSGSGTDFTLTISSLQPEDFAVYYCQQHYSTPFTFGQGTKLEIK
notes: also called hMAK195VH.2a / hMAK195VL.2a
Regarding B2, the binding result was “binds”.

B3: AB263 (antibody, V domains shown)
VH: B2 VH with V24A, L48V, G49S, L67F, S76N, I78L
VL: B2 VL
notes: also called hMAK195VH.2b / hMAK195VL.2a
In the case of B3, the binding entry was “binds”.
